These are yes or no findings as the source states them, for the method shown. In cells and extracts the contact can be indirect. Some entries that bind do so weakly or less than the wild type.
What was measured:
[1] = target: His-tagged E2F1, full length (E2F1-His) (UniProt Q01094); experiment: co-IP; HEK293T cells co-transfected with E2F1-His and POH1-Flag; anti-His antibody or IgG, Protein G-agarose, 4 °C; immunoblot
[2] = target: E2F1 N-terminal fragment aa1-200 (UniProt Q01094); experiment: co-IP; truncated and deletion mutants of POH1 and E2F1 (Supplementary Fig. 2a,b); cells and precipitating antibody not shown
E2F1 portion aa201-437 = E2F1 portion aa201-437 (UniProt Q01094); experiment: as above
[3] = target: His-tagged E2F1, full length (E2F1-His) (UniProt Q01094); experiment: as above
[4] = target: E2F1, endogenous (Fig. 1i) (UniProt Q01094); experiment: co-IP; endogenous proteins; anti-E2F1 antibody or IgG, Protein G-agarose, 4 °C; immunoblot

By UniProt entry, the sequences of proteins in these tests, tags left out. Where a name states a change or a piece, a line headed by the entry shows the natural chain unless it says otherwise. Chains listed by the source or under a name are the forms on record and can include a tag or linker. Residues count along the entry.
UniProt Q01094: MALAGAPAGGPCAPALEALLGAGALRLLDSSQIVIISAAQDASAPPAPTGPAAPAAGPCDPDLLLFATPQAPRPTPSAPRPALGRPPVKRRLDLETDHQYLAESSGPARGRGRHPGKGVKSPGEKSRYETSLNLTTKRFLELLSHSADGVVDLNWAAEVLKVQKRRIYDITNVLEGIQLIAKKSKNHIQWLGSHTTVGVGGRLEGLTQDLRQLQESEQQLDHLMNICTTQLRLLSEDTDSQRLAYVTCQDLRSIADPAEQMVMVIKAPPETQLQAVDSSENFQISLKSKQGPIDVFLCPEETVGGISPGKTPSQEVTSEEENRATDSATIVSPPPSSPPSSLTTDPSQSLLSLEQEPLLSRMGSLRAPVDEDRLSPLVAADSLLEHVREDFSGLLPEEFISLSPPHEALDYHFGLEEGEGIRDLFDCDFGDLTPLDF
E2F1 N-terminal fragment aa1-200: residues 1-200 of Q01094
E2F1 portion aa201-437: residues 201-437 of Q01094
UniProt O00487: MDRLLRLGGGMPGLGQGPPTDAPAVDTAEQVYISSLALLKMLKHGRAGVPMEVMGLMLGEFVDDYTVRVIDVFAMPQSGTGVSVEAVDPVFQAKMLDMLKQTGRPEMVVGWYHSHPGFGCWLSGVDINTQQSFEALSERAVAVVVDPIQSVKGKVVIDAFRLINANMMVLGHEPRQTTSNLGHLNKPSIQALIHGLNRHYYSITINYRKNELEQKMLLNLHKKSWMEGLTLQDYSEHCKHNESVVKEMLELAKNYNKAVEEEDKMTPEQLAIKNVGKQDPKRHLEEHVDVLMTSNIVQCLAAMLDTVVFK
POH1 mutant with deletion of JAMM motif (deletion of 113-126aa) (O00487, form named): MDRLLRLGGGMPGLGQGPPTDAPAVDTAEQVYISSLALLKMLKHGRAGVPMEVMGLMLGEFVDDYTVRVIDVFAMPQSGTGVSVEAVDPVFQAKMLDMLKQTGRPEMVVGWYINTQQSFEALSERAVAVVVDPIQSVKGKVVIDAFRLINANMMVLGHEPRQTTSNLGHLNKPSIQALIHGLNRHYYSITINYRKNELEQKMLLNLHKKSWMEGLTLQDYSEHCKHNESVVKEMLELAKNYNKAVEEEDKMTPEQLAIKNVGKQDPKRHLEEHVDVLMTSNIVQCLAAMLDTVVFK

Flag-tagged POH1 (POH1-Flag) in HEK293T cells (from UniProt O00487 1-310) (enzyme)
binding [1]: binds | binding [2]: binds weakly | binding (E2F1 portion aa201-437): binds

POH1 mutant with deletion of JAMM motif (deletion of 113-126aa) (from UniProt O00487 1-310) (enzyme)
binding [3]: binds

POH1, endogenous (Fig. 1i) (from UniProt O00487 1-310) (enzyme)
binding [4]: binds
